This is an account of results in article PMC12343871.

Chains of the proteins cited; added tags and fusions are not shown.
UniProt Q14258: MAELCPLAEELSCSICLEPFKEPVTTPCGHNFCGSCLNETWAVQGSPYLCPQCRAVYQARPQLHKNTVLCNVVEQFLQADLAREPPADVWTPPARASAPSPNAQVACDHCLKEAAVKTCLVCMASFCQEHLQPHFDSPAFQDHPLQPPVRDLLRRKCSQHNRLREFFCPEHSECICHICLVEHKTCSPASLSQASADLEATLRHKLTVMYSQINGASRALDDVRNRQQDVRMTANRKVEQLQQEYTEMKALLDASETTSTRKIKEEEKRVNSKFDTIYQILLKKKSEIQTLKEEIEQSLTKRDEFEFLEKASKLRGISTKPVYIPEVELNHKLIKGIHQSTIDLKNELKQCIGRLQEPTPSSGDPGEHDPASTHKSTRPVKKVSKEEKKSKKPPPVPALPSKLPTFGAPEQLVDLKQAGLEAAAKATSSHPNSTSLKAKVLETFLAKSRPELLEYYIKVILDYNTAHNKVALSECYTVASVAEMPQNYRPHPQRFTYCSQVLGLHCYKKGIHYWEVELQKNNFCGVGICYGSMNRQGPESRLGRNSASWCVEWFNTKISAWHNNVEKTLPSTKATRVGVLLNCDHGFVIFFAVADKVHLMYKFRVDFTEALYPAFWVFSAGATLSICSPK

This assay has as its target T1, Hexokinase 2 (HK2) (human (endogenous in gastric cancer cells)) (UniProt P52789).
T1 sequence: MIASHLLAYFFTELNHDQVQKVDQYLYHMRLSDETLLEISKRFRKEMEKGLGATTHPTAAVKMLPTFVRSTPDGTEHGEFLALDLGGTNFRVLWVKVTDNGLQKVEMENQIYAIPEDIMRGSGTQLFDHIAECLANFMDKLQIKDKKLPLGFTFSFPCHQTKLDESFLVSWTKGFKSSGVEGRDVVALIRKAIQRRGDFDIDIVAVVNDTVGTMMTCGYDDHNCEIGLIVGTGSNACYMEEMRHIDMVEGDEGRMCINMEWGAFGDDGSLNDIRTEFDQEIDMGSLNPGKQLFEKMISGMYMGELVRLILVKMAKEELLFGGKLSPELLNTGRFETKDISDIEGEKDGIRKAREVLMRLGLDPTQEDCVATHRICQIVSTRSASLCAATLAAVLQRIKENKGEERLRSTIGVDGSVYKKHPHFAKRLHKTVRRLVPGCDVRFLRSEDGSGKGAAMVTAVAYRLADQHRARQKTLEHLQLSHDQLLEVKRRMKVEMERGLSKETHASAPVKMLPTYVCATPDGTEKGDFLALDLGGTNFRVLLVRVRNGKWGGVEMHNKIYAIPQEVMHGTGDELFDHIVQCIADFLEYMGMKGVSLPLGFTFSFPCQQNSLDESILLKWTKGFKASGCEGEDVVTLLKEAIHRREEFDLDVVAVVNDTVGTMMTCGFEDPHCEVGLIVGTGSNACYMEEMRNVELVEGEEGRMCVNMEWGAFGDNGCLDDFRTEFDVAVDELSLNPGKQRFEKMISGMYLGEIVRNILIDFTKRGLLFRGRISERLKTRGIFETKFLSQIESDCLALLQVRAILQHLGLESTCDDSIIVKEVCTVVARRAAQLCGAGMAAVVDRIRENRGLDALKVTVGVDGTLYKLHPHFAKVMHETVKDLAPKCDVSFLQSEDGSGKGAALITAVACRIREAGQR
The experiment in a line: affinity purification with mass spectrometry; IP-MS screening for proteins interacting with HK2; sample and conditions not told.

These are yes or no findings as the source states them, for the method shown. Binding seen in cells or lysates may run through a third protein. A yes stands for co-enrichment or nearness to the bait. Other partners may have been found.

Turning to “Tripartite motif 25 (TRIM25) (from UniProt Q14258 1-630)”, the binding result was “binds”.
